Experimental data as given in the supplement of paper PMC3334620.
Over roughly 33,000 sequences, “E-score (-0.5 to 0.5)” has its median near -0.0034; the highest 2% begin near 0.25. The list shows a part of the results.

Each sequence was assayed against T1, Yap3 (UniProt P38749) (assay: PBM E-score (8-mer binding enrichment) (E-score (-0.5 to 0.5)); higher = stronger / more preferred TF binding). Settings: protein concentration: 100 nM; construct: GST-full length.
T1 sequence: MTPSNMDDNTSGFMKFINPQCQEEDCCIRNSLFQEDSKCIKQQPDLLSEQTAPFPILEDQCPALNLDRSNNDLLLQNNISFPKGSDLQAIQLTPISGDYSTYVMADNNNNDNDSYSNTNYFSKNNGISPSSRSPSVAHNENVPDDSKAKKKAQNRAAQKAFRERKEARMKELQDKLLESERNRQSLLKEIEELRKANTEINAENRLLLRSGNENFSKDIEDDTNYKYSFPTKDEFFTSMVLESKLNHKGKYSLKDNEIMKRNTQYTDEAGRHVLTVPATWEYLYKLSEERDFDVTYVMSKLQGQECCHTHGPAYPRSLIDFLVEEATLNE
Outline: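 PURExpress in vitro transcription/translation supplied GST-tagged yeast transcription factors, either full-length or DNA-binding domain. Applied at about 100-200 nM to universal all-10-mer Agilent arrays double-stranded by primer extension, the bound protein was detected with fluorescent anti-GST. E-scores, modified Wilcoxon-Mann-Whitney statistics, were given by the Universal PBM Analysis Suite to ungapped eight-base words pooled with their reverse complements after masliner normalisation.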
In the case of ACCCTTTC, the “PBM E-score” value is reported as -0.0194. ACAGACGC was tested, and the “PBM E-score” value was -0.168. CACCTGCA was tested, and the “PBM E-score” value was -0.121. In the case of GTAGCCGA, the “PBM E-score” value is reported as -0.114. CACGTCTC was tested, and the “PBM E-score” value was -0.149. ATAAACCG was tested, and the “PBM E-score” value was 0.122. For CTAATGCA, the “PBM E-score” value was 0.0852. With CGTCGGAG the “PBM E-score” value was -0.0637. GGGCGCCC was tested, and the “PBM E-score” value was -0.218. In the case of CCGCTGAC, the “PBM E-score” value is reported as -0.0647. With AGTGAAAA the “PBM E-score” value was 0.0751. For ACCTAGGT, the “PBM E-score” value was -0.0918. In the case of CCCGCACG, the “PBM E-score” value is reported as -0.0849. In the case of ACTAGACT, the “PBM E-score” value is reported as -0.167. In the case of AGTGTCAA, the “PBM E-score” value is reported as 0.0121. With ACGGTGCC the “PBM E-score” value was -0.249. With ACAAAGTC the “PBM E-score” value was -0.01. CAGATATC was tested, and the “PBM E-score” value was -0.00255. For CGGGACCG, the “PBM E-score” value was -0.156. With GTATCGCA the “PBM E-score” value was -0.024. For GAATCACC, the “PBM E-score” value was 0.0519. For ATGAGCAT, the “PBM E-score” value was 0.164. With CCGCCTGA the “PBM E-score” value was -0.0912. AATAAGCC was tested, and the “PBM E-score” value was 0.0794. In the case of CGCAGTTA, the “PBM E-score” value is reported as 0.0484. For ACTGGTCT, the “PBM E-score” value was -0.158. TAAGACGA was tested, and the “PBM E-score” value was 0.0274. ATGAGAAA was tested, and the “PBM E-score” value was 0.181. In the case of AGCGATGA, the “PBM E-score” value is reported as 0.108. CAGGTTTA was tested, and the “PBM E-score” value was 0.0534. AATCCGAT was tested, and the “PBM E-score” value was 0.142. For GCAAACTA, the “PBM E-score” value was 0.15. With CAGAAACA the “PBM E-score” value was 0.139. For AGCGGTTC, the “PBM E-score” value was -0.0274. ACACCTAA was tested, and the “PBM E-score” value was 0.0904. ACGGAATG was tested, and the “PBM E-score” value was -0.00455. In the case of GGACTGAA, the “PBM E-score” value is reported as 0.0634. With CCAGTGTC the “PBM E-score” value was -0.1. For ATCAAGCC, the “PBM E-score” value was 0.0575. In the case of AAAGTGGT, the “PBM E-score” value is reported as 0.064. With ACACATAC the “PBM E-score” value was 0.0464. In the case of TCATAAAA, the “PBM E-score” value is reported as 0.128. For AAGCCCTC, the “PBM E-score” value was -0.227. With CCGCGGGC the “PBM E-score” value was -0.0372. For CTAAATGA, the “PBM E-score” value was -0.0077. In the case of ACTTGAAG, the “PBM E-score” value is reported as -0.0435. With CGTGCCGC the “PBM E-score” value was -0.0418. In the case of ACACTGAG, the “PBM E-score” value is reported as -0.0767. For ATTCATCG, the “PBM E-score” value was 0.0672. With ATCTCTGA the “PBM E-score” value was -0.0337. In the case of CCTAACCG, the “PBM E-score” value is reported as -0.149. In the case of GCTCTTCC, the “PBM E-score” value is reported as -0.222. AAACCGAC was tested, and the “PBM E-score” value was 0.117. CAAAACGG was tested, and the “PBM E-score” value was 0.0777. In the case of CTCGAGCA, the “PBM E-score” value is reported as 0.0514. With ACAAGTGC the “PBM E-score” value was -0.182. CGGCCTTA was tested, and the “PBM E-score” value was -0.0179. In the case of AGAATCAT, the “PBM E-score” value is reported as 0.076. In the case of CTTCATCC, the “PBM E-score” value is reported as 0.027. For ACGGGGAA, the “PBM E-score” value was -0.0267. In the case of AAACCAGA, the “PBM E-score” value is reported as -0.0162. For ACAGATGA, the “PBM E-score” value was 0.0243. In the case of AACACCCT, the “PBM E-score” value is reported as -0.182. In the case of GCGTGGCC, the “PBM E-score” value is reported as -0.3. ATTGGTAA was tested, and the “PBM E-score” value was 0.304. With AGCGATGC the “PBM E-score” value was -0.204. For CAAAAGCA, the “PBM E-score” value was -0.00282. With AGCGAAGC the “PBM E-score” value was -0.215. In the case of GTGAAAAC, the “PBM E-score” value is reported as -0.0189. CATCACCC was tested, and the “PBM E-score” value was -0.123. With GGAGCAAC the “PBM E-score” value was -0.104. In the case of ACAGCGCT, the “PBM E-score” value is reported as -0.0874. AAGTTGAC was tested, and the “PBM E-score” value was -0.0409. GAACCGAA was tested, and the “PBM E-score” value was 0.0199. GGGAAACC was tested, and the “PBM E-score” value was 0.0323. For AAATCCGG, the “PBM E-score” value was 0.0821. CCGAGACC was tested, and the “PBM E-score” value was -0.123. With GTACTATA the “PBM E-score” value was 0.194. In the case of TTAATCAA, the “PBM E-score” value is reported as 0.148. AACTTACG was tested, and the “PBM E-score” value was 0.237. For CAGGAAAC, the “PBM E-score” value was 0.137. For GCTATTAC, the “PBM E-score” value was 0.137. In the case of TAGCACTA, the “PBM E-score” value is reported as 0.0422. With ACAGTCTA the “PBM E-score” value was -0.0453. With CCACTTGA the “PBM E-score” value was 0.119. In the case of GGGAATAC, the “PBM E-score” value is reported as 0.0659. With GGATGCCA the “PBM E-score” value was -0.204. With GGTCAGTA the “PBM E-score” value was -0.139. GGTGATAA was tested, and the “PBM E-score” value was 0.0163. In the case of AGGTAAAT, the “PBM E-score” value is reported as 0.117. With CGGGGCTC the “PBM E-score” value was -0.21. With ACCAACCT the “PBM E-score” value was 0.0359. CTAAACAA was tested, and the “PBM E-score” value was 0.127. ATCCCCCG was tested, and the “PBM E-score” value was -0.0717. In the case of CGTTAATC, the “PBM E-score” value is reported as 0.152. With CGAGGGGA the “PBM E-score” value was -0.25. In the case of ACCATCAA, the “PBM E-score” value is reported as 0.133. In the case of CCGTCAGC, the “PBM E-score” value is reported as -0.167. In the case of GCCAGATA, the “PBM E-score” value is reported as -0.0308. For CTAATATC, the “PBM E-score” value was 0.163. With CTCACTAA the “PBM E-score” value was -0.0789. With AGCATACG the “PBM E-score” value was -0.0333. ATCCCACG was tested, and the “PBM E-score” value was -0.0635. CTTAGGTC was tested, and the “PBM E-score” value was -0.0924. With AACTGCCA the “PBM E-score” value was -0.0467. With AGCGCATA the “PBM E-score” value was 0.112. With CCTTCGGA the “PBM E-score” value was -0.212. CGCTCAGA was tested, and the “PBM E-score” value was -0.133. ACGTCATA was tested, and the “PBM E-score” value was 0.156. For CCTATAGC, the “PBM E-score” value was -0.0262. With TAAAGCTA the “PBM E-score” value was -0.0896. AGTGCCCA was tested, and the “PBM E-score” value was 0.0636. CGCCGCTA was tested, and the “PBM E-score” value was -0.109. For AGTCCTTG, the “PBM E-score” value was -0.16. GGACGGAC was tested, and the “PBM E-score” value was -0.166. With GATGGCAA the “PBM E-score” value was 0.128. For AATACCGG, the “PBM E-score” value was 0.133. With CGCAAGAA the “PBM E-score” value was 0.191. For CCGAGACG, the “PBM E-score” value was -0.0916. In the case of AACTGCCG, the “PBM E-score” value is reported as 0.00013. GCAAGAAA was tested, and the “PBM E-score” value was 0.161. ATCGTATC was tested, and the “PBM E-score” value was 0.106. For CATGGGAC, the “PBM E-score” value was -0.0258. With CGACTTTC the “PBM E-score” value was -0.0265. In the case of GCACAGTA, the “PBM E-score” value is reported as 0.0785. With GCAGGGCC the “PBM E-score” value was -0.275. With AACGGTCA the “PBM E-score” value was 0.0629. In the case of AACCACAG, the “PBM E-score” value is reported as -0.0877. With ACCATGCC the “PBM E-score” value was -0.0126. With GTCGAGGA the “PBM E-score” value was -0.119. In the case of AAGGCGTC, the “PBM E-score” value is reported as -0.0529. For TAGATACA, the “PBM E-score” value was 0.0774. For ACGAAATA, the “PBM E-score” value was 0.0697. In the case of GCCGTACC, the “PBM E-score” value is reported as -0.163. With CAGGCCGG the “PBM E-score” value was -0.333. In the case of CTACTGCA, the “PBM E-score” value is reported as -0.207. For ATCACTGA, the “PBM E-score” value was -0.192. In the case of ATCGTCAG, the “PBM E-score” value is reported as -0.0651. In the case of GAAATATA, the “PBM E-score” value is reported as 0.248. CAAGAGAG was tested, and the “PBM E-score” value was -0.0663. CGCCTGTC was tested, and the “PBM E-score” value was -0.211. With CAGTCAGG the “PBM E-score” value was -0.0935. For ACGCCAAT, the “PBM E-score” value was 0.133. In the case of CCTCGCAG, the “PBM E-score” value is reported as -0.106. With AATAGACG the “PBM E-score” value was 0.153. In the case of ATTGTGAG, the “PBM E-score” value is reported as 0.0597. For CCGTGGAG, the “PBM E-score” value was -0.138. For CCTGCCCA, the “PBM E-score” value was -0.132. For CAGTCCGA, the “PBM E-score” value was -0.0781. CCCTCATC was tested, and the “PBM E-score” value was -0.104. For CATGCGAA, the “PBM E-score” value was -0.0126. For CTGTAAAG, the “PBM E-score” value was -0.0693. In the case of TTACAAAA, the “PBM E-score” value is reported as 0.256. ATAATCAC was tested, and the “PBM E-score” value was 0.231. AAGCCGAT was tested, and the “PBM E-score” value was 0.158. For GGCCCAGA, the “PBM E-score” value was -0.291. CCGTGCTC was tested, and the “PBM E-score” value was -0.161. CCTCTGAA was tested, and the “PBM E-score” value was -0.0144. GGTATGAC was tested, and the “PBM E-score” value was 0.0231. In the case of ATATGTTC, the “PBM E-score” value is reported as 0.184. For CCTCGTCC, the “PBM E-score” value was -0.24. With GGACTAAC the “PBM E-score” value was -0.134. CAGTCGAG was tested, and the “PBM E-score” value was -0.112. With ACATAAAT the “PBM E-score” value was 0.239. For AGGTCATA, the “PBM E-score” value was 0.0126. With GCCCCACC the “PBM E-score” value was -0.0294. For AGTGGCCC, the “PBM E-score” value was -0.105. For CAATCCGA, the “PBM E-score” value was 0.138. With AGCCTAAC the “PBM E-score” value was -0.158. With GACCTGGA the “PBM E-score” value was -0.125. In the case of AACCTCCT, the “PBM E-score” value is reported as -0.0549. In the case of AAAGAATG, the “PBM E-score” value is reported as 0.115.
